# Assay results: PubChem BioAssay AID540256 (National Center for Advancing Translational Sciences (NCATS), 2011)
# About 3,700 (1.2%) of roughly 300,000 compounds were called active. The shares of active, inactive and inconclusive entries below differ from those in the screen. Calls follow the shape of the full dose curve; tested in HEK293 cells. A potency beside an inconclusive call is a rough fit, not a confirmed value.
# Assay: qHTS for Inhibitors of binding or entry into cells for Lassa Virus; also: nearly all actives have a fitted effect of over 50% in size
# Details: Lassa virus pseudotype entry inhibition, cell reporter; series mostly up to 37.9 µM
# Potency is read from the fitted curve at half-maximal effect.
row,Compound,Potency
1,O=C(COC(=O)CNC(=O)c1ccccc1F)Nc1ccc2c(c1)OCCO2,"inconclusive: 0.178 µM [inhibitor, partial curve, poor fit]"
2,Cc1nc(Nc2ccc3c(c2)OCCO3)c2nnn(Cc3ccccc3Cl)c2n1,"inconclusive: 16.4 µM [inhibitor, single point]"
3,CC(C)(C)OC(=O)N1CCC(c2c(C(=O)O)cnn2-c2ccc(F)cc2F)CC1,inactive
4,O=C(CN1C(=O)COc2ccc(S(=O)(=O)N3CCCCCC3)cc21)N1CCN(c2cccc(Cl)c2)CC1,inactive
5,CC(C)(C)c1ccc(C(=O)Nc2ccc3nc(SCC(=O)N4CCCC4)sc3c2)cc1,"inconclusive: 35.5 µM [inhibitor, single point]"
6,Cc1ccc(S(=O)(=O)N2CCOCC2)cc1C(=O)O,inactive
7,COc1ccc(-n2c(SCC(=O)Nc3ccccc3)nnc2-c2ccc(NS(=O)(=O)c3ccc(C)cc3)cc2)cc1,"inconclusive: 32.6 µM [inhibitor, single point]"
8,O=c1cc(CN2CCN(c3ccccc3)CC2)c2c(ccc3ccccc32)o1,"inconclusive: 35.5 µM [inhibitor, single point]"
9,CCCCN(C(=O)CSc1cc(C)c2ccccc2n1)c1c(N)n(Cc2ccccc2)c(=O)[nH]c1=O,"inconclusive: 17.8 µM [inhibitor, single point]"
10,Cc1nn(-c2ccc(Cl)cc2)c(N)c1C(O)(CSc1nccn1C)C(F)(F)F (stereo not drawn),inactive
11,COc1ccccc1NS(=O)(=O)c1ccc2oc(SC)nc2c1,inactive
12,O=C(CSc1nc(-c2ccccc2)[nH]c1-c1ccc(F)cc1)NC1CCCC1,"inconclusive: 39.8 µM [inhibitor, single point]"
13,CSc1ccc(NC(=O)Nc2cc(C)ccn2)cc1,active: 7.08 µM
14,COc1ccccc1C(=O)N1CCC(c2c[nH]c3ccccc23)(c2c[nH]c3ccccc23)CC1,inactive
15,CCOC(=O)c1ccc(N2C(=O)c3n[nH]c(-c4ccco4)c3C2c2cccc(F)c2)cc1 (stereo not drawn),"inconclusive: 17.8 µM [inhibitor, partial curve, poor fit]"
16,Cc1cc2ncc(-c3ncc(C(F)(F)F)cc3Cl)cn2n1,"inconclusive: 1.46 µM [inhibitor, full curve, poor fit]"
17,C=CCn1c(SCC(=O)c2c(N)n(C3CC3)c(=O)[nH]c2=O)nnc1-c1ccccc1OC,inactive
18,COc1cccc(/C=C/C(=O)OCC(=O)N2CCN(S(=O)(=O)c3ccc(Cl)cc3)CC2)c1,"inconclusive: 0.447 µM [activator, single point]"
19,NC(=O)[C@@H]1CCCN1C(=O)c1cc(COc2ccc3c(c2)CCCC3)on1,inactive
20,CCCC(=O)O[C@]1(C(=O)COC(C)=O)CC[C@H]2[C@@H]3C[C@H](F)C4=CC(=O)C=C[C@]4(C)[C@@]3(F)[C@@H](O)C[C@@]21C,"inconclusive: 32.6 µM [inhibitor, partial curve, poor fit]"
21,Cc1ccc(NC(=O)C2CCN(S(=O)(=O)c3c(C)noc3/C=C/c3ccco3)CC2)nc1,"inconclusive: 15.8 µM [inhibitor, single point]"
22,O=C1OC(COc2ccc(Br)cc2)CN1c1ccccc1 (stereo not drawn),"inconclusive: 5.62 µM [inhibitor, single point]"
23,CC(C)NS(=O)(=O)c1ccc(OCC(=O)N2CCN(c3cccc(Cl)c3)CC2)cc1,"inconclusive: 35.5 µM [inhibitor, single point]"

# Look-ups from the results shown:
# Under Potency, Cc1nn(-c2ccc(Cl)cc2)c(N)c1C(O)(CSc1nccn1C)C(F)(F)F (stereo not drawn) has inactive
# Under Potency, CCOC(=O)c1ccc(N2C(=O)c3n[nH]c(-c4ccco4)c3C2c2cccc(F)c2)cc1 (stereo not drawn) has inconclusive: 17.8 µM [inhibitor, partial curve, poor fit]

# A second format for 2 compounds above:
row	Compound	Potency
18	COc1cccc(/C=C/C(=O)OCC(=O)N2CCN(S(=O)(=O)c3ccc(Cl)cc3)CC2)c1	inconclusive: 0.447 µM [activator, single point]
23	CC(C)NS(=O)(=O)c1ccc(OCC(=O)N2CCN(c3cccc(Cl)c3)CC2)cc1	inconclusive: 35.5 µM [inhibitor, single point]

# Further entries follow.

row,Compound,Potency
1,COc1ccc(/C=C/C(=O)C2(O)CCCCC2)cc1OC,"inconclusive: 15.8 µM [inhibitor, single point]"
2,CC(=O)OCC#CCSc1nc2ccccc2n1C,inactive
3,Cc1ccc(C)c(N2CCN(S(=O)(=O)c3ccc4c(c3)CC(C)N4C(=O)C3CC3)CC2)c1 (stereo not drawn),"inconclusive: 1.78 µM [inhibitor, full curve, poor fit]"
4,COc1cccc(-c2nnc3sc(-c4ccco4)nn23)c1,"inconclusive: 23.1 µM [activator, single point]"
5,Cc1cc(=O)nc2c3ccccc3n(C(C)C(=O)Nc3c(F)c(F)c(F)c(F)c3F)n12 (stereo not drawn),inactive
6,Cc1sc(NC(=S)NC(=O)CCc2ccccc2)c(C(N)=O)c1C,"inconclusive: 0.517 µM [inhibitor, full curve, poor fit]"
7,COc1cccc(C2C(C#N)=C(N)OC3=C2C(=O)CC(c2ccco2)C3)c1OCc1ccc(F)cc1 (stereo not drawn),"inconclusive: 0.398 µM [activator, partial curve, poor fit]"
8,O=C(NCc1ccco1)c1nc2c(nnn2Cc2cccc(Cl)c2)c(=O)[nH]1,inactive
9,Cc1ccccc1NC(=S)N(C)Cc1cn(C)c2ccccc12,inactive
10,O=C(N/N=C/c1ccc(O)cc1)NC12CC3CC(CC(C3)C1)C2,"inconclusive: 8.91 µM [inhibitor, partial curve, poor fit]"
11,O=C(C1COc2cc(S(=O)(=O)Nc3ccc(Cl)cc3)ccc2O1)N1CCCC1 (stereo not drawn),"inconclusive: 11.2 µM [inhibitor, partial curve, poor fit]"
12,CCC(c1nnnn1Cc1ccc(F)cc1)N(CCCO)Cc1cc2cc3c(cc2[nH]c1=O)OCO3 (stereo not drawn),"inconclusive: 14.1 µM [inhibitor, single point]"
13,COC(=O)/C=C1/SC(=NC(=O)c2cccc([N+](=O)[O-])c2)NC1=O,inactive
14,Fc1ccc(-c2nnc(CN3CCN(c4ccccn4)CC3)o2)cc1,"inconclusive: 6.31 µM [activator, partial curve, poor fit]"
15,COc1ccc(C(=O)c2cn(Cc3ccc(F)cc3)c3c(F)cc(F)cc3c2=O)cc1,"inconclusive: 35.5 µM [inhibitor, single point]"
16,CCCn1c(CCC(=O)O)ccc1-c1ccc(OC)cc1,"inconclusive: 0.82 µM [inhibitor, partial curve, poor fit]"
17,Cn1c(NC(=O)c2ccco2)c(-c2ccc(Cl)cc2)c(=O)c2ccccc21,inactive
18,O=C(OCc1ccc(F)cc1)c1ccc2c(c1)-c1ccccc1C2=O,active: 1.12 µM
19,COc1ccc(C=C2C=C(C(C)(C)C)C(=O)C(C(C)(C)C)=C2)cc1OC,inactive
20,C#C[C@]1(O)CC[C@H]2[C@@H]3CCC4=Cc5oncc5CC4(C)[C@H]3CCC21C (stereo partly drawn),"inconclusive: 0.0041 µM [inhibitor, full curve, poor fit]"
21,O=C(/C=C/Nc1ccc(F)c(F)c1)c1ccc(Br)cc1,"inconclusive: 2.51 µM [activator, partial curve]"
22,Cc1ccc(CN(Cc2ccco2)C(=O)c2ccccc2Cl)o1,inactive
23,O=C(O)c1ccccc1C(=O)OCCCCOC(=O)c1ccccc1C(=O)O,inactive

row,Compound,Potency
1,CN(C(=S)NC(=O)c1ccccc1Br)C1CCCCC1,inactive
2,CCCNC(=O)c1ccc(C)c(NC(=O)C2=C(C)OCCS2)c1,inactive
3,Cn1cccc1C(=O)NC(=O)COC(=O)c1ccc(S(C)(=O)=O)cc1,inactive
4,C=CC(=O)N=c1sc2ccccc2n1-c1ccccc1,"inconclusive: 12.6 µM [inhibitor, partial curve, poor fit]"
5,CC(C)=CCC12CC3[C@@H](O)C(C(=O)c4ccccc4)(C1=O)C(=O)C(CC=C(C)C)(C2=O)C3(C)C (stereo partly drawn),"inconclusive: 3.35 µM [inhibitor, single point]"
6,O=C(Nc1cccc(Br)c1)c1cccc(OC(=S)N2CCOCC2)c1,"inconclusive: 15.8 µM [inhibitor, single point]"
7,Cc1ccccc1C(=O)OC1OC(=O)C(Cl)=C1N1CCOCC1 (stereo not drawn),"inconclusive: 15.8 µM [inhibitor, single point]"
8,Cc1ccc(NC(=O)N2CCc3ccccc3C2)cc1C,inactive
9,CCc1ccccc1NC(=O)N1CC(CC)Oc2ccc(Cl)cc21 (stereo not drawn),"inconclusive: 17.8 µM [inhibitor, single point]"
10,CCc1ccc(Sc2cc(C(=O)NCCN3CCOCC3)c3ccccc3n2)cc1,"inconclusive: 35.5 µM [inhibitor, single point]"
11,O=C(CSc1ccc([N+](=O)[O-])cn1)Nc1ccc2[nH]c(=O)[nH]c2c1,inactive
12,O=c1c2cn[nH]c2[nH]c(=S)n1-c1ccccc1Cl,inactive
13,CC(=O)Oc1cc(O)c2c(c1)OC(c1ccc(OC(C)=O)c(OC(C)=O)c1)C(OC(C)=O)C2=O (stereo not drawn),"inconclusive: 17.8 µM [activator, single point]"
14,COc1ccc(/C=N/NC(=O)c2ccoc2C)cc1COc1c(C)cccc1C,"inconclusive: 3.16 µM [inhibitor, full curve, poor fit]"
15,O=C1CSC(c2ccc(Cl)cc2)N1C1CCCCC1 (stereo not drawn),"inconclusive: 11.2 µM [inhibitor, partial curve]"
16,COc1cc([N+](=O)[O-])ccc1N/C=C/C(=O)c1cccs1,"inconclusive: 5.17 µM [inhibitor, partial curve, poor fit]"
17,CCOC(=O)N1CCc2c(sc3c2c(=O)n(CCc2ccccc2)c(=O)n3Cc2ccc(C)cc2C)C1,inactive
18,CCCCN(Cc1ccccc1)C1CCN(Cc2ccccc2)CC1,"inconclusive: 7.08 µM [inhibitor, full curve]"
19,CCOC(=O)N1CCN(S(=O)(=O)c2cc(Br)cc3c2N(C(C)=O)C(C)C3)CC1 (stereo not drawn),"inconclusive: 1.46 µM [inhibitor, partial curve, poor fit]"
20,N=c1oc2ccc(Cl)cc2cc1C(=O)Nc1ccc(F)cc1,inactive
21,Cc1cccc(C(=O)Nc2nc3c(s2)CCCC3)c1,"inconclusive: 6.31 µM [activator, single point]"
22,COc1cc(C(=O)NC(c2ccccc2)c2ccccc2)cc(OC)c1OC,inactive
